# About 22,000 (6.9%) of roughly 320,000 compounds were called active. Inconclusive results, whose numbers are uncertain, are shown with a selection of clear calls. The call rests on the fitted dose curve; in most records, active means well fitted inhibition curve with a large enough effect; inconclusive means small, poorly fitted or top-dose-only effect, or another doubt; inactive means no such curve, though single readings can be large or run the other way. Potencies beside an inconclusive call are fits to weak or partial responses and may not hold up.
# Assay: Primary qHTS for delayed death inhibitors of the malarial parasite plastid, 96 hour incubation
# Conditions: P. falciparum luciferase reporter growth; series mostly up to 28.7 µM; activity change, negative = inhibition: at the top concentration
# Outline: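 Two parasite generations (96 h, 37 C, 5% CO2) of compound exposure in infected erythrocytes (0.05% parasitemia, 2% hematocrit). Luciferase-reporter P. falciparum; decreased luminescence indicates inhibited growth, aimed at apicoplast-acting delayed death.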
# On the % scale 0 is the no-effect control and ±100 the full control effect; potency means the concentration at half of the fitted maximal effect.
SMILES,"activity change, negative = inhibition",Potency
Cc1cccc(-n2c(-c3ccco3)nc3nc4ccccc4nc32)c1,inactive: -6.88%,–
COc1ccc(-c2nncnn2)cc1,–,active: 6.57 µM
Cc1ccc(-c2csc3nc(SCC(N)=O)n(Cc4ccccc4)c(=O)c23)cc1,inactive: 10.1%,–
COc1c2ccoc2c(OC)c2oc(=O)ccc12,–,"inconclusive: 10.4 µM [inhibitor, single point]"
CC1(C)CNC(=O)c2sc(NC(=O)c3ccccc3)nc2C1,–,"inconclusive: 14.7 µM [inhibitor, single point]"
Cc1onc(-c2ccccc2)c1NC(=O)N(Cc1ccccc1)C(C)C,–,"inconclusive: 18.5 µM [inhibitor, single point]"
COc1ccc(F)cc1S(=O)(=O)N1CCN(c2ccccn2)CC1,–,"inconclusive: 5.22 µM [inhibitor, partial curve, poor fit]"
CC(=O)N1CCN(c2ccc(NC(=O)c3ccc(N4CCCC4)c([N+](=O)[O-])c3)cc2Cl)CC1,–,"inconclusive: 11.7 µM [inhibitor, partial curve, poor fit]"
CC(C)NCC(O)c1ccc(C2CCCC2)cc1 (stereo not given),–,"inconclusive: 11.7 µM [inhibitor, single point]"
COc1ccc(CS(=O)(=O)CC(C)(O)c2ccccc2)cc1 (stereo not given),inactive: 29.6%,–
CCCCOc1ccc(-c2nnn(CC(=O)NCc3ccco3)n2)cc1,inactive: 0%,–
COc1ccc(C2=[N+]([O-])C(C)(C)N(O)C2(C)C)cc1,–,"inconclusive: 0.0033 µM [inhibitor, full curve, poor fit]"
COc1cccc(NC(=O)CN(C)C(=O)c2cc(C3CC3)nn2-c2ccccc2)c1,inactive: -26.3%,–
Cc1c(C2C(C#N)=C(N)N(c3ccccc3C#N)C3=C2C(=O)CCC3)cnn1C (stereo not given),–,"inconclusive: 10.4 µM [inhibitor, single point]"
COc1ccccc1CN1C(=O)c2ccccc2C1C(=O)NC1CCC(C)CC1 (stereo not given),–,"inconclusive: 2.62 µM [inhibitor, full curve, poor fit]"
Cc1ccc([N+](=O)[O-])cc1S(=O)(=O)Nc1ccc(OCC(=O)N2CCOCC2)cc1,–,"inconclusive: 18.5 µM [inhibitor, single point]"
CCOCCCN(C(=O)c1snc(C(N)=O)c1N)C(C(=O)NC(C)(C)C)c1ccc(Cl)cc1 (stereo not given),–,"inconclusive: 18.5 µM [inhibitor, single point]"
CCn1c(=O)cc(SCC(=O)N2CCN(c3ccccc3F)CC2)c2ccccc21,inactive: -4.13%,–
CCN1CC(CN(C)Cc2nc(-c3ccco3)oc2C)CC1=O (stereo not given),–,"inconclusive: 10.4 µM [inhibitor, single point]"
Cc1nc(-c2ccccc2)cn(O)c1=O,inactive: 24.2%,–
COc1cccc(C=N[C@@H](CO)[C@@H](O)c2ccc([N+](=O)[O-])cc2)c1O,inactive: 33.9%,–
O=C(COc1ccccc1Cl)NCCNC(=O)c1cccnc1,inactive: 36.5%,–
CCC(=O)N1CCc2cc(S(=O)(=O)NCCc3ccc(S(N)(=O)=O)cc3)ccc21,–,"inconclusive: 11.7 µM [inhibitor, single point]"
C/C(=N\NC(=O)c1ccccc1O)c1c(O)n(C2CCCCC2)c(=O)[nH]c1=O,–,"inconclusive: 10.4 µM [inhibitor, partial curve, poor fit]"

SMILES,"activity change, negative = inhibition",Potency
O=C(CC1C(=O)NCCN1Cc1cccc(Oc2ccccc2)c1)NCc1cccnc1 (stereo not given),–,"inconclusive: 0.104 µM [inhibitor, full curve, poor fit]"
O/N=C(\c1ccc(Cl)cc1)c1ncc(C(F)(F)F)cc1Cl,–,"inconclusive: 18.5 µM [inhibitor, single point]"
COc1ccc(/C=C/C(=O)NCC2COc3ccccc3O2)c(OC)c1 (stereo not given),–,"inconclusive: 16.5 µM [inhibitor, single point]"
Cc1cccc(NC(=O)CN2CCN(C(=O)c3ccc(-c4nc5ccccc5s4)o3)CC2)c1C,–,"inconclusive: 2.33 µM [inhibitor, single point]"
CCOC(=O)CCc1c(C)nc(SCCCn2c(=O)[nH]c3ccccc32)c(C#N)c1C,inactive: -0.83%,–
O=C(c1cccnc1)N1N=C(C2CCCCC2)CC1(O)C(F)(F)F (stereo not given),–,"inconclusive: 2.94 µM [inhibitor, partial curve, poor fit]"
CCCN(CCC)Cc1cc(=O)oc2cc3c(cc12)CCC3,–,"inconclusive: 10.4 µM [inhibitor, partial curve, poor fit]"
CCCCNCc1cccn1-c1ccccc1,inactive: 18%,–
O=C(NNC(=S)NCc1ccco1)c1ccc(Cl)s1,–,"inconclusive: 14.7 µM [inhibitor, partial curve, poor fit]"
COc1cc(-c2noc(C)c2-c2ccc3[nH]ccc3c2)cc(OC)c1OC,–,active: 10.4 µM
C#CCOCCOCCOCCNc1nc(N2CCN(C(=O)C(Cc3ccc(O)cc3)n3cc(C(N)CC(C)C)nn3)CC2)nc(N2CCN(C(=O)C(Cc3cc4ccccc4[nH]3)n3cc(C(N)C(C)CC)nn3)CC2)n1 (stereo not given),–,"inconclusive: 18.5 µM [inhibitor, single point]"
CCc1noc(C)c1C(=O)Nc1nnc(C(CC)CC)s1,inactive: -29.3%,–
Nc1c(C(=O)CCC(=O)O)oc2ccc(Cl)cc12,inactive: 1.44%,–
COc1ccc(NS(=O)(=O)c2ccc3c(c2)NC(=O)CCS3)cc1Cl,–,active: 5.86 µM
CCCCNS(=O)(=O)c1ccc2nc(-c3cccnc3)cc(C(=O)NC(C)CC)c2c1 (stereo not given),–,"inconclusive: 10.4 µM [inhibitor, partial curve, poor fit]"
CCN(c1ccccc1)S(=O)(=O)c1ccc(N)c(OC)c1,inactive: -18.6%,–
CC(O)(CS(=O)(=O)Cc1ccccc1)c1ccc(Cl)cc1 (stereo not given),–,"inconclusive: 0.0026 µM [inhibitor, full curve, poor fit]"
COc1cccc(NC(=O)CCP(C)(=O)O)c1,–,"inconclusive: 6.57 µM [inhibitor, partial curve, poor fit]"
Cc1cccc(NC(=O)NCCN2CCN(c3ccccc3)CC2)c1C,–,"inconclusive: 18.5 µM [inhibitor, single point]"
CCOc1c(Br)cc(CNC2CCCCCCC2)cc1OC,inactive: 6%,–
COc1ccc2c(Cl)c(C(=O)N/N=C/c3ccncc3)sc2c1,inactive: 22%,–
COc1ccc2[nH]c3c(N4CC(C)OC(C)C4)ncnc3c2c1 (stereo not given),–,"inconclusive: 4.15 µM [inhibitor, partial curve]"
CNc1nc(-c2ccc(S(=O)(=O)N3CCCCC3)cc2)cs1,–,"inconclusive: 18.5 µM [inhibitor, single point]"
Cc1c(OCC(=O)C(C)(C)C)ccc2c(-c3ccccc3)cc(=O)oc12,–,"inconclusive: 0.928 µM [inhibitor, partial curve, poor fit]"

# A few values from above:
# Potency, COc1ccc(NS(=O)(=O)c2ccc3c(c2)NC(=O)CCS3)cc1Cl reads active: 5.86 µM
# Potency, CC(C)NCC(O)c1ccc(C2CCCC2)cc1 (stereo not given) reads inconclusive: 11.7 µM [inhibitor, single point]
# Potency, O/N=C(\c1ccc(Cl)cc1)c1ncc(C(F)(F)F)cc1Cl reads inconclusive: 18.5 µM [inhibitor, single point]
# activity change, negative = inhibition, CCn1c(=O)cc(SCC(=O)N2CCN(c3ccccc3F)CC2)c2ccccc21 reads inactive: -4.13%
# Potency, Cc1cccc(NC(=O)NCCN2CCN(c3ccccc3)CC2)c1C reads inconclusive: 18.5 µM [inhibitor, single point]

# Next part

SMILES,"activity change, negative = inhibition",Potency
CC(=O)c1sc(-c2ccccn2)nc1C,–,"inconclusive: 4.15 µM [inhibitor, single point]"
C[N+]1([O-])[C@H]2CC[C@H]1CC(OC(=O)[C@@H](CO)c1ccccc1)C2 (stereo not given in full),–,"inconclusive: 3.01 µM [inhibitor, full curve]"
CCN(CC)S(=O)(=O)c1cc(NC(=O)C(C)N2CCc3ccccc32)ccc1C (stereo not given),–,active: 10.4 µM
COc1cc(CNCCc2ccc3c(c2)OCO3)cc(OC)c1OC,–,"inconclusive: 0.0586 µM [inhibitor, full curve, poor fit]"
COc1cc(-c2noc(CCCC(=O)Nc3cccnc3)n2)cc(OC)c1OC,–,"inconclusive: 18.5 µM [inhibitor, single point]"
O=C(O)C1C2C=CC(C2)C1C(=O)N1CCOCC1 (stereo not given),–,"inconclusive: 0.0738 µM [inhibitor, full curve, poor fit]"
COC(=O)c1c(C(=O)OC)c(-c2ccc(Br)cc2)n2c1CS(=O)C2 (stereo not given),inactive: -20.8%,–
COC(=O)c1ccccc1-n1c(CCC(=O)O)ccc1-c1ccccc1,–,"inconclusive: 18.5 µM [inhibitor, single point]"
O=S(=O)(NCCN1CCOCC1)c1ccc(-c2ccc(S(=O)(=O)NCCN3CCOCC3)cc2)cc1,–,"inconclusive: 10.4 µM [inhibitor, single point]"
COc1ccccc1-c1nc(-c2ccc(C)nc2OC)no1,inactive: -18.4%,–
CC(C)C(=O)NC(=S)Nc1nnn(C)n1,inactive: 8.52%,–
CC(C)CC(C(=O)Nc1oc(-c2ccco2)c(-c2ccco2)c1C#N)N1C(=O)c2ccccc2C1=O (stereo not given),–,"inconclusive: 10.4 µM [inhibitor, single point]"
COc1ccc(C(=O)Nc2ccccc2)cc1NC(=O)c1cccs1,inactive: -20.8%,–
CCn1cc(C(=O)N2CCCC2)c(=O)c2cc(S(=O)(=O)N3CCOCC3)ccc21,inactive: 18.8%,–
COc1ccc(C2(c3ccc(OC)cc3)NC(=O)N(CC(=O)Nc3ccc(N4CCOCC4)cc3)C2=O)cc1,–,"inconclusive: 10.4 µM [inhibitor, partial curve]"
CC1(c2ccccc2)NC(=S)N2C1NC(=S)N2c1ccccc1 (stereo not given),inactive: -9.03%,–
COc1ccc(-c2nnc(S/C(=C/c3ccc(Cl)cc3)C(=O)O)o2)cc1,–,"inconclusive: 14.7 µM [inhibitor, single point]"
CCOC(=O)c1cnc2ccc(OC)cc2c1Nc1ccc(N2CCN(C)CC2)cc1,–,active: 0.928 µM
COc1ccc(N(CC(=O)NC2CCCC2)C(=O)Cn2nnc(-c3ccc(OC)c(OC)c3)n2)c(OC)c1,–,"inconclusive: 10.4 µM [inhibitor, single point]"
CCOCCCNCC(=O)NC1(C)C2CCC(C2)C1(C)C (stereo not given),–,"inconclusive: 14.7 µM [inhibitor, partial curve, poor fit]"
CC(=O)c1ccc(N2CCN(CC(=O)Nc3ccccc3N3CCOCC3)CC2)cc1,–,"inconclusive: 18.5 µM [inhibitor, single point]"
Cc1cc(NC(=O)CCC(=O)N(c2ccc(F)cc2)C(C(=O)NC2CCCC2)c2ccccc2)no1 (stereo not given),–,"inconclusive: 4.65 µM [inhibitor, partial curve]"
